Measured values reported in ChEMBL document CHEMBL4732199, “Potent and orally bioavailable CDK8 inhibitors: Design, synthesis, structure-activity relationship analysis and biological evaluation” (Eur J Med Chem, 2021).
≈ marks a conversion by molar mass, not a printed value.

The chains behind the UniProt entries cited, without tags or fusion partners. Where a name states a change or a piece, a line headed by the entry shows the natural chain unless it says otherwise.
UniProt P10635, whole entry: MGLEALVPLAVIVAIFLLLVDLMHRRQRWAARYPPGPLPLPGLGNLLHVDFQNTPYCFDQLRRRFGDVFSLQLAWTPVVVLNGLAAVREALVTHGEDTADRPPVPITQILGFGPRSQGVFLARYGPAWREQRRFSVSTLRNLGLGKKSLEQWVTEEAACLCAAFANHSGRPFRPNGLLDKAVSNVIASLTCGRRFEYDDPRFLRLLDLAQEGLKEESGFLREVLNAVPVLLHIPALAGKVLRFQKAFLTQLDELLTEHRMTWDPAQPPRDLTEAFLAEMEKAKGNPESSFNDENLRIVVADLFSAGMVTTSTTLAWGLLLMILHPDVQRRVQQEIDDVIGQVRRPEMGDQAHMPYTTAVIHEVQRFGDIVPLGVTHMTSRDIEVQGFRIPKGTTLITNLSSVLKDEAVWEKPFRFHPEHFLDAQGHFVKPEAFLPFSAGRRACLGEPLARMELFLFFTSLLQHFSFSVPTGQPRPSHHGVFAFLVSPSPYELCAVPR
UniProt P33261, whole entry: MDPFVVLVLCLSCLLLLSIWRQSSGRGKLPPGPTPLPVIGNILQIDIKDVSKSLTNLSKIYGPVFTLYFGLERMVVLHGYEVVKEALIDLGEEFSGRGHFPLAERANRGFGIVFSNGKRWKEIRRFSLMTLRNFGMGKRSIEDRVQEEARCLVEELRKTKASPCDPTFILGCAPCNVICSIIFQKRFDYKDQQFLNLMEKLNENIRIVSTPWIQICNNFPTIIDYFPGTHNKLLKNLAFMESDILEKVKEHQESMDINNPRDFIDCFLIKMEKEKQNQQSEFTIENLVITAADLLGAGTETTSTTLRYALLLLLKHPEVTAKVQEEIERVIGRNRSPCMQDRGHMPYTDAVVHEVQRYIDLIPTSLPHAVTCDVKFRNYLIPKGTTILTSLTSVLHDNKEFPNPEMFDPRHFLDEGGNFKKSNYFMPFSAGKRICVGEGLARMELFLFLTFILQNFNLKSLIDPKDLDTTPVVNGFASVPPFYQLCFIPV
UniProt P11712, whole entry: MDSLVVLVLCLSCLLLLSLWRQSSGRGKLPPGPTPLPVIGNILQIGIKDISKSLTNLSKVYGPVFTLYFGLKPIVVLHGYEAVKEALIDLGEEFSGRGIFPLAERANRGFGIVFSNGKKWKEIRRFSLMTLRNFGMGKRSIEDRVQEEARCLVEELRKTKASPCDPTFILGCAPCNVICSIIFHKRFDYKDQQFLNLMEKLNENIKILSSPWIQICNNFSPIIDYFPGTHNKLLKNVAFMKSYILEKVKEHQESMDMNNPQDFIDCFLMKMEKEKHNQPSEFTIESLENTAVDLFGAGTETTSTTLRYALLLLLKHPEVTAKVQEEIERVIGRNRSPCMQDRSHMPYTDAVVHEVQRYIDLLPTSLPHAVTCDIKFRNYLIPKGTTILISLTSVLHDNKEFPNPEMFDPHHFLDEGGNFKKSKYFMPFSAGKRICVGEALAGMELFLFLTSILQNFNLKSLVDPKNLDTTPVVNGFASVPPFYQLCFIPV
UniProt Q12809: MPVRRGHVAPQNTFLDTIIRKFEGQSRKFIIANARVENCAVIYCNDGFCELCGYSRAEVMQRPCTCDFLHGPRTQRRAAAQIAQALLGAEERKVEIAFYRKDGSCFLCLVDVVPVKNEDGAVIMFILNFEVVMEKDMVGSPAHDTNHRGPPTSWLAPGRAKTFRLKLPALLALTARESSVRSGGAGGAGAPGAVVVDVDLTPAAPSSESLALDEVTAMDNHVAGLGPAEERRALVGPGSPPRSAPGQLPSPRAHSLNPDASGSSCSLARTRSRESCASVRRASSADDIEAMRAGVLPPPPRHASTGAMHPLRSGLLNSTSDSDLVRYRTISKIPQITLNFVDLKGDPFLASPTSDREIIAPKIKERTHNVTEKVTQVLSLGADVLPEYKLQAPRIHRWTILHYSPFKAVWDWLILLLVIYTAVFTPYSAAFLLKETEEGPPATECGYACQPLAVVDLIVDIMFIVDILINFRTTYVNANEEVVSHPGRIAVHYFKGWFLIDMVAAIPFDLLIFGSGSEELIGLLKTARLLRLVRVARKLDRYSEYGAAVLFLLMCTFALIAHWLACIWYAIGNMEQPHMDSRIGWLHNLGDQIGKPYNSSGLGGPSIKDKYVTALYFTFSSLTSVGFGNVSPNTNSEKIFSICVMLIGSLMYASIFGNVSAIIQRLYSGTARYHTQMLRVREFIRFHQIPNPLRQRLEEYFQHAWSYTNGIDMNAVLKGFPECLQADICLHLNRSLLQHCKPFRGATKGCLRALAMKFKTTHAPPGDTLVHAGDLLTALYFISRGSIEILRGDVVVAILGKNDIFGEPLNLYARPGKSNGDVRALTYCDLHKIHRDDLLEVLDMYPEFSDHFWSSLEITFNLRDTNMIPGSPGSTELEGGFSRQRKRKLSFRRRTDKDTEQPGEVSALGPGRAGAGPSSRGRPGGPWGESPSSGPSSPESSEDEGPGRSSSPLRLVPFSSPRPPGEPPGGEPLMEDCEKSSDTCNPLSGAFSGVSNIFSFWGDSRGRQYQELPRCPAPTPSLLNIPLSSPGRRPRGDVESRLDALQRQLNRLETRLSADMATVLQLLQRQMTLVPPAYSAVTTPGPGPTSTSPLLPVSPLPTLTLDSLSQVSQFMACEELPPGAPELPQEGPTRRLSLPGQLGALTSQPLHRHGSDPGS

Tests used:
Cytochrome P450 2D6 = Cytochrome P450 2D6 (Homo sapiens, UniProt P10635)
physchem [1] = settings: octanol/water, pH 7.4
Cytochrome P450 2C19 = Cytochrome P450 2C19 (Homo sapiens, UniProt P33261)
in vitro [2] = settings: human, Caco-2
in vitro [3] = settings: human, Caco-2; remark: listed apart in the source
Cytochrome P450 2C9 = Cytochrome P450 2C9 (Homo sapiens, UniProt P11712)
physchem [4] = settings: buffer
[5] = target: Voltage-gated inwardly rectifying potassium channel KCNH2 (Homo sapiens, UniProt Q12809); assay: Inhibition of human ERG expressed in CHO cells

SMILES | IC50 (Cytochrome P450 2D6) [µM] | logD (physchem [1]) | IC50 (Cytochrome P450 2C19) [µM] | Papp A→B at 2 h, 10 µM (in vitro [2]) [×10⁻⁶ cm/s] | Papp B→A at 2 h, 10 µM (in vitro [3]) [×10⁻⁶ cm/s] | IC50 (Cytochrome P450 2C9) [µM] | solubility kinetic (physchem [4]) [µM] | IC50 [5] [µM]
O=C1NCCC12CCN(c1c(Cl)cncc1-c1cc3ccccc3o1)CC2 | > 25 | 4.21 | > 25 | 22.9 | 23.4 | > 25 | 10 (≈ 3.82 µg/mL) | –
O=C1NCCC12CCN(c1c(Cl)cncc1-c1cc3ccccc3s1)CC2 | > 25 | > 4 | > 25 | 20.4 | 19.5 | > 25 | < 20 | 14.7
